These are yes or no findings as the source states them, for the method shown. Binding seen in cells or lysates may run through a third protein. These calls come from enrichment with a bait or labelling near it, and not all partners need be listed. Sequences can lack the tags named with a protein.

Chains of the proteins cited; added tags and fusions are not shown. Residues count along the entry.
UniProt Q922F4: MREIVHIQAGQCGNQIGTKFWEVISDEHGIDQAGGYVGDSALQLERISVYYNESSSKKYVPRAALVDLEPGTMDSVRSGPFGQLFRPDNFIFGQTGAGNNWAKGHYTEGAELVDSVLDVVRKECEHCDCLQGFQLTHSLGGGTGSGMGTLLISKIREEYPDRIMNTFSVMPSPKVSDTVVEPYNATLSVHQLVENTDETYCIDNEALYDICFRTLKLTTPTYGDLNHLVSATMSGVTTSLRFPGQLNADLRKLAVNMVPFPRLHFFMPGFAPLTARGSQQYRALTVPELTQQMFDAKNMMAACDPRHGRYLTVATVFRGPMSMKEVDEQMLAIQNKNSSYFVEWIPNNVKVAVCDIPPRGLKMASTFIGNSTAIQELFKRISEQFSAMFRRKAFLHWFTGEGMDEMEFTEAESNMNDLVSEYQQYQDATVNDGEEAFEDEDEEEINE
UniProt Q03265, residues 44-553: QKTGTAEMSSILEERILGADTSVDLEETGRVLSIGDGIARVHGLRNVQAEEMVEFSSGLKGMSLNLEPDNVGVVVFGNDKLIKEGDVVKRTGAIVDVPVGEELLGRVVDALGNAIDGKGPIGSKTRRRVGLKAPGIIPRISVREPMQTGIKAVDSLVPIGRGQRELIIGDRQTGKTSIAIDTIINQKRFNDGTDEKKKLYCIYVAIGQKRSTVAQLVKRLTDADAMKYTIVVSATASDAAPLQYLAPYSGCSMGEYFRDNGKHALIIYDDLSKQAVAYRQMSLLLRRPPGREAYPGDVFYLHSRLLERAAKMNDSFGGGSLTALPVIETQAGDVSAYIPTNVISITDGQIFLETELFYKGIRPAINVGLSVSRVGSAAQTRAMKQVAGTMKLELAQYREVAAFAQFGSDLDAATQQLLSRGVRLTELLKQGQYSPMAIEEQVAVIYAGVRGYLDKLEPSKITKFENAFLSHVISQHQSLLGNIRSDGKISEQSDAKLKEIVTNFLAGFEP
UniProt Q9WU60, residues 83-1428: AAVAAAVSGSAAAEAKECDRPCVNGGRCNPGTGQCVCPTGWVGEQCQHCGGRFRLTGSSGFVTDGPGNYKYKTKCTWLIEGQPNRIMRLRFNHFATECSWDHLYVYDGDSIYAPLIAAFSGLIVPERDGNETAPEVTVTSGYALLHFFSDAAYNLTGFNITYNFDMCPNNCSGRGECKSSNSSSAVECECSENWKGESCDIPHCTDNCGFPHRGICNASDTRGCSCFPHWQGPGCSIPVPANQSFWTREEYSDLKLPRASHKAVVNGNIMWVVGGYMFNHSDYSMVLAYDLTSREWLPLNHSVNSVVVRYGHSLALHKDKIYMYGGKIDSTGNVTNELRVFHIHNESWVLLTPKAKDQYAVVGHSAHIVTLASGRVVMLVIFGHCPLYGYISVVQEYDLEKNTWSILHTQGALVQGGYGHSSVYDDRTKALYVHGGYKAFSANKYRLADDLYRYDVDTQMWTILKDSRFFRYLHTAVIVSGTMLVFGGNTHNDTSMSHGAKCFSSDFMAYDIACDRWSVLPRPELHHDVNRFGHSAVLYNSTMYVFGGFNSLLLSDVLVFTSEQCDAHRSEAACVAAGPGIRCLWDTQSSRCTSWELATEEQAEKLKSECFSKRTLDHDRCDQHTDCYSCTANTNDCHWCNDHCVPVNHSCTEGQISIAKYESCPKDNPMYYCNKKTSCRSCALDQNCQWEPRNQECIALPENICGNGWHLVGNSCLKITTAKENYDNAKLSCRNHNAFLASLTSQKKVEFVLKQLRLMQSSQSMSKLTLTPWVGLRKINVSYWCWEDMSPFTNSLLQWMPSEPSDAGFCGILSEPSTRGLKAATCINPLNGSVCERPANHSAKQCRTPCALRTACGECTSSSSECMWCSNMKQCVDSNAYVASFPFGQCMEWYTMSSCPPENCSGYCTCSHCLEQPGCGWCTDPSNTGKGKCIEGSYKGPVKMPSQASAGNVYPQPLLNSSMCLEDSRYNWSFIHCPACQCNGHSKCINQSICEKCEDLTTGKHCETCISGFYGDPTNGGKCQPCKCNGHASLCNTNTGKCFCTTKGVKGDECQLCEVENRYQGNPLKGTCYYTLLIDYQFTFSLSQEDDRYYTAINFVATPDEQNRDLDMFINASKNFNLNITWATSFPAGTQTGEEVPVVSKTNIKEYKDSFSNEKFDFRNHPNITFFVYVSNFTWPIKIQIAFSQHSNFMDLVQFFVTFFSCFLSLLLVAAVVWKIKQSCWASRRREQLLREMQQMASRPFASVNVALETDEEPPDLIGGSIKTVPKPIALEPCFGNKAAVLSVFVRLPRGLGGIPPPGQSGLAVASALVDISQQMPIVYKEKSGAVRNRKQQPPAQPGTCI
UniProt Q6A051, residues 52-1378: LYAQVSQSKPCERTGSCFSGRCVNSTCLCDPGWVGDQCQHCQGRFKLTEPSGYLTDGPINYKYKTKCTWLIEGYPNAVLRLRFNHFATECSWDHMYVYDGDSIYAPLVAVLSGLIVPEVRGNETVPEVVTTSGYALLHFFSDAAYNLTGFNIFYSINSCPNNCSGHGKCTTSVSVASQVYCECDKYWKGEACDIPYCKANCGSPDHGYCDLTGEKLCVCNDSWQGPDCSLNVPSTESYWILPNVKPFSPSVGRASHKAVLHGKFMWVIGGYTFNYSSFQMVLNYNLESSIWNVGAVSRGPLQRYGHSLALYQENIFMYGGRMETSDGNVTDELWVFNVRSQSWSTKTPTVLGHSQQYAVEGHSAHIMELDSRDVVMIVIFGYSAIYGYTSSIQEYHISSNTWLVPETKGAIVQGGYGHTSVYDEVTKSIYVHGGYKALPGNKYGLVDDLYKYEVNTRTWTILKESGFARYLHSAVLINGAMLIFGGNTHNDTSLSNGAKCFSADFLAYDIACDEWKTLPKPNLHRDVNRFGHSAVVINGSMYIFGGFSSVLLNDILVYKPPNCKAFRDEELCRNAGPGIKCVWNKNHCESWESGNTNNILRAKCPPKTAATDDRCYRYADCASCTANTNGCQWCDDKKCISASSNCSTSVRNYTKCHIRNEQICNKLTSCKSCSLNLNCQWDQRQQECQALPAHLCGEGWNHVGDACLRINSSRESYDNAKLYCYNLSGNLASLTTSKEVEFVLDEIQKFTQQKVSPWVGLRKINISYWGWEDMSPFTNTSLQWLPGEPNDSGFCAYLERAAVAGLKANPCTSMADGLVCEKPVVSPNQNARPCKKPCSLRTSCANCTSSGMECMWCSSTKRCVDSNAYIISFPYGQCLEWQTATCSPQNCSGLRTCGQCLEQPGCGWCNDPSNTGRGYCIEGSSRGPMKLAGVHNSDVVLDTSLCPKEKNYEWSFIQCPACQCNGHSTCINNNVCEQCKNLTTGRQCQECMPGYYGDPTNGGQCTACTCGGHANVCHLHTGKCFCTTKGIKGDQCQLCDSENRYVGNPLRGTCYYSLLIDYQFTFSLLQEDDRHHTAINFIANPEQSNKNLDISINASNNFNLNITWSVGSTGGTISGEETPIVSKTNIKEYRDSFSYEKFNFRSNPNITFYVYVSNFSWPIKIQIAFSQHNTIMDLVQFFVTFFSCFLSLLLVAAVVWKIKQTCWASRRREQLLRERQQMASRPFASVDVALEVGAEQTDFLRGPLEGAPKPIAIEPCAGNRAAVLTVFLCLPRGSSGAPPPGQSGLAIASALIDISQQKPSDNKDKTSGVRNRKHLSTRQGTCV
UniProt P56480, residues 47-529: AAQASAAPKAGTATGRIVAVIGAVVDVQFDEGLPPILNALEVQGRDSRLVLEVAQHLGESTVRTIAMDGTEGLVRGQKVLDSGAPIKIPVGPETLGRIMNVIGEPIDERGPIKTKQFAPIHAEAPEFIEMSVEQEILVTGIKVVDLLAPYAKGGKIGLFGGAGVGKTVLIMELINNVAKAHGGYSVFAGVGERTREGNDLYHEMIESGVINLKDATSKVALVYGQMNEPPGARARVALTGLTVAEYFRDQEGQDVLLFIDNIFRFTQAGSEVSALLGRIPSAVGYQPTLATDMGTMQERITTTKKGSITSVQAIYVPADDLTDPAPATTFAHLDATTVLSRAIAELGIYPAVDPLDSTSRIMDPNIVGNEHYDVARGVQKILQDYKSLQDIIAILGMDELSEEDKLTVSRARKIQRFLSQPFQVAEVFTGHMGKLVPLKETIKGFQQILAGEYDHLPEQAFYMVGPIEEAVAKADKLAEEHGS

The results in this text go back to PMC12752501.

This assay deals with T1, MGRN1 fused to a 1D4 tag (MGRN1–1D4) (mouse) (UniProt Q9D074).
T1 sequence: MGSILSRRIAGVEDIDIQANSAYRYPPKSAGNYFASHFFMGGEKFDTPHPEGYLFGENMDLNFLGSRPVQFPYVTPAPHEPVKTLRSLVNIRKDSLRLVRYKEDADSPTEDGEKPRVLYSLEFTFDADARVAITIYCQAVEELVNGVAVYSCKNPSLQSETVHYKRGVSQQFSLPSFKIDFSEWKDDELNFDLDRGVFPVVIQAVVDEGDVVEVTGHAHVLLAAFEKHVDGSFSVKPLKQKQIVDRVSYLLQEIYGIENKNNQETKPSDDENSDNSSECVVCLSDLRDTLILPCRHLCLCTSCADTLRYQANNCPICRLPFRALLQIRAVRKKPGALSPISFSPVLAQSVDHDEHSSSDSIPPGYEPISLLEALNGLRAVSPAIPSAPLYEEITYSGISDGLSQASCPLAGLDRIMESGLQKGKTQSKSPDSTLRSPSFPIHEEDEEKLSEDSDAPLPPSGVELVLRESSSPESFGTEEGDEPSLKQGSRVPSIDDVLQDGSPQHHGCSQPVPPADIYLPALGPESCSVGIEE
In words: affinity purification with mass spectrometry; MGRN1–1D4 stably expressed in Mgrn1−/−; Rnf157−/− NIH/3T3 cells, captured by 1D4 antibody on Protein A Dynabeads; gel bands analysed by LC-MS; compared to wild-type controls; lysis in 50 mM Tris-HCl pH 8.0, 150 mM NaCl, 1% NP-40, 1 mM DTT.

Consider TUBB6 (from UniProt Q922F4 1-447), for which the binding entry is recorded as “binds”.

Take ATPA (from UniProt Q03265 44-553): the binding result was “binds”.

As for “endogenous ATRN (attractin) (from UniProt Q9WU60 83-1428)”, the binding entry is “binds”.

Turning to “endogenous ATRNL1 (attractin-like 1) (from UniProt Q6A051 52-1378)”, the binding result is “binds”.

As for ATPB (from UniProt P56480 47-529), the binding entry is on record as “binds”.

B1: ADT2 (protein, UniProt P51881 1-298)
chain: MTDAAVSFAKDFLAGGVAAAISKTAVAPIERVKLLLQVQHASKQITADKQYKGIIDCVVRIPKEQGVLSFWRGNLANVIRYFPTQALNFAFKDKYKQIFLGGVDKRTQFWRYFAGNLASGGAAGATSLCFVYPLDFARTRLAADVGKAGAEREFKGLGDCLVKIYKSDGIKGLYQGFNVSVQGIIIYRAAYFGIYDTAKGMLPDPKNTHIFISWMIAQSVTAVAGLTSYPFDTVRRRMMMQSGRKGTDIMYTGTLDCWRKIARDEGSKAFFKGAWSNVLRGMGGAFVLVLYDEIKKYT
On to B1, for which the binding result is reported as “binds”.
